The list shows only some results of the screen, not a fair sample: it is rich in T/C values a quarter to a half above the control, in often repeated tests (any T/C) and in doses without a T/C. Other doses and runs of a compound stand elsewhere. T/C: endpoint of the treated group in % of that of the vehicle group. Some entries give survivors of the animals treated and no T/C: the source holds a T/C of zero for them, seemingly a mark for toxic or unscored doses. Some survivor counts are full or nearly so, which does not show that the dose was tolerated: survival well below the control is almost never listed, so the zero probably covers shortened survival too. Counts of survivors are from the toxicity check (mostly the fifth day) where no day follows; animals may have died later. Schedules are NCI's codes, read here as Q, the interval in days (D) or hours (H), X, the number of doses. For survival time, this PubChem deposit counts one and a half times the control or more as active, and values a quarter to a half above the control carry no call in these data; other NCI protocols may use other cut-offs. Some T/C values carry the count of animals alive at the toxicity check (mostly the fifth day); where none is given, no animal had died by that day. Some entries hold several experiments; the values are given in rising order.
System: BDF1 mice, P388 leukemia ip, median survival T/C
Test: NCI In Vivo Anticancer Drug Screen. Data for tumor model P388 Leukemia (intraperitoneal) in B6D2F1 (BDF1) mice
Details: T/C endpoint: median survival time, higher T/C = longer survival
How it was run: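 Vehicle-dosed animals serve as the reference; survival of compound-dosed, tumour-implanted mice is divided by it.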

[1] = dose: 50.0 mg/kg/injection, schedule: Q04DX003 (ip), vehicle: Klucel (hydroxypropylcellulose) (HPC)
[2] = dose: 100.0 mg/kg/injection, schedule: Q04DX003 (ip), vehicle: Klucel (hydroxypropylcellulose) (HPC)
[3] = dose: 200.0 mg/kg/injection, schedule: Q04DX003 (ip), vehicle: Klucel (hydroxypropylcellulose) (HPC)
[4] = dose: 400.0 mg/kg/injection, schedule: Q04DX003 (ip), vehicle: Klucel (hydroxypropylcellulose) (HPC)
[5] = dose: 200.0 mg/kg/injection, schedule: Q01DX009 (ip), vehicle: Klucel (hydroxypropylcellulose) (HPC)
[6] = dose: 21.0 mg/kg/injection, schedule: Q01DX009 (ip), vehicle: saline
[7] = dose: 25.0 mg/kg/injection, schedule: Q01DX009 (ip), vehicle: saline

## ClCCN(CCCl)CCN1c2ccccc2Sc2ccccc21
dose: 1.8 mg/kg/injection, schedule: Q01DX009 (ip), vehicle: Klucel (hydroxypropylcellulose) (HPC)
  T/C: 138 % of control
dose: 2.7 mg/kg/injection, schedule: Q01DX009 (ip), vehicle: Klucel (hydroxypropylcellulose) (HPC)
  T/C: 147 % of control
dose: 4.1 mg/kg/injection, schedule: Q01DX009 (ip), vehicle: Klucel (hydroxypropylcellulose) (HPC)
  T/C: 131 % of control
dose: 6.0 mg/kg/injection, schedule: Q01DX009 (ip), vehicle: Klucel (hydroxypropylcellulose) (HPC)
  T/C: 130 and 133 % of control
dose: 6.1 mg/kg/injection, schedule: Q01DX009 (ip), vehicle: Klucel (hydroxypropylcellulose) (HPC)
  T/C: 145 % of control [5 of 6 alive]
dose: 9.0 mg/kg/injection, schedule: Q01DX009 (ip), vehicle: Klucel (hydroxypropylcellulose) (HPC)
  T/C: 137, 138, 141 % of control [5 of 6 alive]
dose: 14.0 mg/kg/injection, schedule: Q01DX009 (ip), vehicle: Klucel (hydroxypropylcellulose) (HPC)
  T/C: 141 [4 of 6 alive] and 146 % of control
dose: 18.0 mg/kg/injection, schedule: Q01DX009 (ip), vehicle: Klucel (hydroxypropylcellulose) (HPC)
  T/C: 129 % of control
dose: 18.75 mg/kg/injection, schedule: Q01DX009 (ip), vehicle: Klucel (hydroxypropylcellulose) (HPC)
  survivor count: 3 of 6
dose: 23.0 mg/kg/injection, schedule: Q04DX003 (ip), vehicle: saline with Tween-80
  T/C: 141 % of control
dose: 24.0 mg/kg/injection, schedule: Q01DX009 (ip), vehicle: Klucel (hydroxypropylcellulose) (HPC)
  T/C: 130 % of control [5 of 6 alive]
dose: 35.0 mg/kg/injection, schedule: Q04DX003 (ip), vehicle: saline with Tween-80
  T/C: 141 % of control
dose: 37.0 mg/kg/injection, schedule: Q01DX009 (ip), vehicle: Klucel (hydroxypropylcellulose) (HPC)
  survivor count: 5 of 6
dose: 37.5 mg/kg/injection, schedule: Q01DX009 (ip), vehicle: Klucel (hydroxypropylcellulose) (HPC)
  survivor count: 1 of 6
[1]
  survivor count: 5 of 6
dose: 56.0 mg/kg/injection, schedule: Q01DX009 (ip), vehicle: Klucel (hydroxypropylcellulose) (HPC)
  survivor count: 0 of 6
dose: 70.0 mg/kg/injection, schedule: Q04DX003 (ip), vehicle: Klucel (hydroxypropylcellulose) (HPC)
  survivor count: 3 of 6
[2]
  survivor count: 0 of 5
[3]
  survivor count: 0 of 6
[4]
  survivor count: 0 of 6

## COC(=O)[C@]1(C)CCC[C@]2(C)[C@H]3CC4OO[C@@]3(CC[C@H]21)[C@H]1O[C@@]41C(C)C
dose: 200.0 mg/kg/injection, schedule: Q01DX009 (ip), vehicle: other
  T/C: 140 % of control
dose: 300.0 mg/kg/injection, schedule: Q01DX009 (ip), vehicle: other
  survivor count: 3 of 6
dose: 400.0 mg/kg/injection, schedule: Q01DX009 (ip), vehicle: other
  survivor count: 5 of 6

## O=C(NC1CCCCC1)OCC#CC#CCOC(=O)NC1CCCCC1
[4]
  survivor count: 4 of 6

## CC[C@H](CC[C@@H](C)[C@H]1CC[C@H]2[C@@H]3CC=C4C[C@@H](OC(=O)CN5CCNCC5)CC[C@]4(C)[C@H]3CC[C@]12C)C(C)C
[5]
  survivor count: 2 of 6

## N#Cc1sc2ccccc2c1CBr
dose: 50.0 mg/kg/injection, schedule: Q01DX009 (ip), vehicle: Klucel (hydroxypropylcellulose) (HPC)
  survivor count: 4 of 6
dose: 75.0 mg/kg/injection, schedule: Q04DX003 (ip), vehicle: Klucel (hydroxypropylcellulose) (HPC)
  survivor count: 2 of 6

## COc1ccc(-c2c(C#N)cnc(C)c2C)c(O)c1OC
dose: 0.05 mg/kg/injection, schedule: Q01DX009 (ip), vehicle: Klucel (hydroxypropylcellulose) (HPC)
  survivor count: 5 of 6
dose: 0.1 mg/kg/injection, schedule: Q01DX009 (ip), vehicle: Klucel (hydroxypropylcellulose) (HPC)
  survivor count: 6 of 6
dose: 0.4 mg/kg/injection, schedule: Q01DX009 (ip), vehicle: Klucel (hydroxypropylcellulose) (HPC)
  survivor count: 6 of 6

## NCCO/C=C/C(N)C(=O)O (centres undefined)
dose: 6.25 mg/kg/injection, schedule: Q01DX009 (ip), vehicle: saline
  T/C: 136 % of control

## CCCCCCCCCCCC[N+](C)(C)C (tested in a mixture with another compound)
dose: 7.0 mg/kg/injection, schedule: Q01DX009 (ip), vehicle: saline
  T/C: 142 % of control
dose: 9.2 mg/kg/injection, schedule: Q01DX009 (ip), vehicle: saline
  T/C: 131 % of control [5 of 6 alive]
dose: 14.0 mg/kg/injection, schedule: Q01DX009 (ip), vehicle: saline
  T/C: 136 % of control
[6]
  T/C: 136 % of control [5 of 6 alive]
  survivor count: 2 of 6
dose: 28.0 mg/kg/injection, schedule: Q01DX009 (ip), vehicle: saline
  survivor count: 2 of 6

## CCCCCCOc1ccc(OCCCC[N+]2(CC)CCCCC2)cc1
[7]
  survivor count: 1 of 6

## CSc1cccc(NC(C)=O)c1
[5]
  survivor count: 5 of 6

## CC(=O)OC1CC(OC2C(O)CC(OC3C(O)CC(OC4CCC5(C)C(CCC6C5CCC5(C)C(C7=CC(=O)OC7)CCC65O)C4)OC3C)OC2C)OC(C)C1OC1OC(CO)C(O)C(O)C1O (centres undefined)
dose: 10.0 mg/kg/injection, schedule: Q01DX010 (ip), vehicle: carboxymethylcellulose (CMC)
  survivor count: 4 of 6
dose: 20.0 mg/kg/injection, schedule: Q01DX010 (ip), vehicle: carboxymethylcellulose (CMC)
  survivor count: 2 of 6

## CC1([CH2][Hg][Cl])Cc2ccccc2O1 (centres undefined)
dose: 6.25 mg/kg/injection, schedule: Q04DX003 (ip), vehicle: saline with Tween-80
  survivor count: 1 of 6

## CC(C)(C)C#C[P+](C#CC(C)(C)C)(Cc1ccccc1)c1ccccc1
[7]
  survivor count: 6 of 6
dose: 50.0 mg/kg/injection, schedule: Q01DX009 (ip), vehicle: saline
  survivor count: 5 of 6

## CC(=O)OCC(=O)[C@@]1(O)[C@H](C)C[C@H]2[C@@H]3C=C(C)C4=Cc5c(cnn5-c5ccc(F)cc5)C[C@]4(C)[C@H]3[C@@H](O)C[C@@]21C
dose: 1.56 mg/kg/injection, schedule: Q01DX009 (ip), vehicle: steroid suspending solution
  survivor count: 6 of 6
dose: 3.12 mg/kg/injection, schedule: Q01DX009 (ip), vehicle: steroid suspending solution
  survivor count: 6 of 6
dose: 6.25 mg/kg/injection, schedule: Q01DX009 (ip), vehicle: Klucel (hydroxypropylcellulose) (HPC)
  survivor count: 4 of 6
dose: 6.25 mg/kg/injection, schedule: Q01DX009 (ip), vehicle: steroid suspending solution
  survivor count: 6 of 6
dose: 7.9 mg/kg/injection, schedule: Q04DX003 (sc), vehicle: steroid suspending solution
  survivor count: 5 of 6
dose: 12.5 mg/kg/injection, schedule: Q01DX009 (ip), vehicle: Klucel (hydroxypropylcellulose) (HPC)
  survivor count: 2 of 6
dose: 25.0 mg/kg/injection, schedule: Q01DX009 (ip), vehicle: Klucel (hydroxypropylcellulose) (HPC)
  survivor count: 2 of 6
dose: 25.0 mg/kg/injection, schedule: Q04DX003 (ip), vehicle: Klucel (hydroxypropylcellulose) (HPC)
  survivor count: 5 of 6
[1]
  survivor count: 6 of 6
[2]
  survivor count: 6 of 6
[3]
  survivor count: 2 of 6
[4]
  survivor count: 1 of 6

## COc1ccc(NC(=S)NN)cc1
dose: 100.0 mg/kg/injection, schedule: Q04DX003 (ip), vehicle: saline with Tween-80
  T/C: 130 % of control

## Oc1ccccc1O.[O-]c1ccccc1[O-].[O-]c1ccccc1[O-].[O]=[V+2]
dose: 37.5 mg/kg/injection, schedule: Q04DX003 (ip), vehicle: saline
  T/C: 145 % of control
dose: 55.0 mg/kg/injection, schedule: Q01DX009 (ip), vehicle: saline
  survivor count: 2 of 6
dose: 85.0 mg/kg/injection, schedule: Q01DX009 (ip), vehicle: saline
  survivor count: 1 of 6
dose: 125.0 mg/kg/injection, schedule: Q01DX009 (ip), vehicle: saline
  survivor count: 0 of 6

## O=C(O)c1c(Cl)c(Cl)c(Cl)c(Cl)c1C(=O)O.O=C(O)c1c(Cl)c(Cl)c(Cl)c(Cl)c1C(=O)O.[Pt]
dose: 100.0 mg/kg/injection, schedule: Q04DX003 (ip), vehicle: saline sonified
  T/C: 130 % of control

## Cc1nccnc1N
dose: 200.0 mg/kg/injection, schedule: Q01DX009 (ip), vehicle: saline
  survivor count: 3 of 6
dose: 400.0 mg/kg/injection, schedule: Q04DX003 (ip), vehicle: saline
  survivor count: 6 of 6
